Consider two molecules from publication PMC9278858.

For test [1], the target named is T1, TAP-Sen1ΔNTD (Sen1 lacking the N-terminal domain, TAP-tagged, expressed from pGAL1) (S. cerevisiae) (UniProt Q00416).
T1 sequence: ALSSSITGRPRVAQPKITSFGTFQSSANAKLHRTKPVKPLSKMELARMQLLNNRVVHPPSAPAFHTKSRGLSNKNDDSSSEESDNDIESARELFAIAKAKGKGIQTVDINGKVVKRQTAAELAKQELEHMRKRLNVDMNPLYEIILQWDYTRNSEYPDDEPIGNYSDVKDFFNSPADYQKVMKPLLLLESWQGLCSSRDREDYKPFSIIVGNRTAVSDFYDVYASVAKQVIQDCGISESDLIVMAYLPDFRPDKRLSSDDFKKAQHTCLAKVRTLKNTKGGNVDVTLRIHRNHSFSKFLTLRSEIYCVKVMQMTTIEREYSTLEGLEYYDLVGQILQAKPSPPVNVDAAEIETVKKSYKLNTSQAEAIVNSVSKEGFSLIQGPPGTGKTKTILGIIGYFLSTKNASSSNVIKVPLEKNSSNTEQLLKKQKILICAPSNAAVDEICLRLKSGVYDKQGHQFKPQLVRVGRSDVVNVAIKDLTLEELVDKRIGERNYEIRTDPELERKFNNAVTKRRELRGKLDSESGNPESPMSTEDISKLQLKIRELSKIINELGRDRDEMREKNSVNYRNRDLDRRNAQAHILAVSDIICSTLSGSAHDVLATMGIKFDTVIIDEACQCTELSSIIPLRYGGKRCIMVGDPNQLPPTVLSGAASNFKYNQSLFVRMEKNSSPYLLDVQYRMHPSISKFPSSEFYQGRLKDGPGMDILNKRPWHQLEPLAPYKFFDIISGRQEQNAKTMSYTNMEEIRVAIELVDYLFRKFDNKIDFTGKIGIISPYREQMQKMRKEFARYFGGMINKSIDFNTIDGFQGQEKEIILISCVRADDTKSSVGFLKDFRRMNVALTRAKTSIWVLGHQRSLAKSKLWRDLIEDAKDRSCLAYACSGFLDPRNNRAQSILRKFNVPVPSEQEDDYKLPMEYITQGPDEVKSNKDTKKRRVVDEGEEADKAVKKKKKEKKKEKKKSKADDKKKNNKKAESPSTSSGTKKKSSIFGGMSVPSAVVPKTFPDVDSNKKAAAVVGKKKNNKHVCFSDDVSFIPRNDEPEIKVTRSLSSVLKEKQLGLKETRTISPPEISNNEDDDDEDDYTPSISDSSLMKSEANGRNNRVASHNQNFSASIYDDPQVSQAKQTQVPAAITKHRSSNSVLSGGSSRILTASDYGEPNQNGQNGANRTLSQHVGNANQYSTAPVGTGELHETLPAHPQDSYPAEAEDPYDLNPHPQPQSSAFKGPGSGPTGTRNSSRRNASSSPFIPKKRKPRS
Description: affinity purification with mass spectrometry; TAP-tagged Sen1 versions (full length, ΔNTD, NTD) overexpressed from pGAL1 as baits; yeast lysates in 10 mM sodium phosphate pH 7.5, 200 mM sodium acetate, 0.25% NP-40, treated with RNase A; IgG Sepharose; elution by TEV cleavage; untagged control.

The target of test [2] is Sen1-3–TAP (Sen1 W773A E774A W777A fused to a TAP tag) (S. cerevisiae) (UniProt Q00416). Description: affinity purification with mass spectrometry; Sen1-TAP or Sen1-3–TAP as bait; yeast lysates; untagged control.

No constants are given. Whether binding was seen depends on the method and setting. Binding seen in cells or lysates may run through a third protein. These calls come from enrichment with a bait or labelling near it, and not all partners need be listed. No binding means not detected with the bait. For part of these data: Where a sequence is shown, tags or fusion partners need not be part of it.

B1: Mrc1 (protein, UniProt P25588 1-1096)
chain: MDDALHALSSLTAKKRTTTYKKVAVPILDENDNTNGNGPNDIDNPPELTGNGFLFANATLNRVKNRLEGKKAPEQNHNNGKDRSENSLPTQLISNLYDGGEELEKSEVKDNSYSEKNVSSSFTQTQRIPVSIQQDKVFNVPIHSVNDGKPTQLIKEDGLVNETSQALKTPLTTGRPGATQRIDSSGATSQTQPIKSIEPQSQIITTSSNHSNALSPKIPIIPTELIGTSPLFQSIQNRGPDTQMDVPPQTAHDEDKTQAIGIPQATHQEQKTQIDTVAQTLQDEVPHTLKIREIQSELASEDSKREKARNVEYKKPQKPIPTKKFFSKESFLADFDDSSSNEDDDIKLENAHPKPVQNDDELHENKSVELNLTDETRINEKRVPLLSSYANNLKREIDSSKCITLDLDSDSDEYGDDDMDSIKLSKDESVLPISQLSKATILNLKARLSKQNQKLSQRPNKSKDPKVDHNVLLNTLRKASRKQILDHQKEVIETKGLKLEDMAKEKEIVENLLEQEILRNKRIRQKEKRREKLEENDFQLNAHDSGSDSGSESSGFALSGNEIADYESSGSENDNRRESDSEKEDDEIILKQKKSHHVKHIINESDSDTEVEAKPKEKADESLPKRIAINLGHYGDNIGEDTDKFQETNVLDTQNIEEVMAERNTIENEVKDDVYVNEEADEAIRRQLIDKEKLQLKQKEKEHEAKIKELKKRGVTNFFEMEAEESEDEWHGIGGADGEGSDDYDSDLEKMIDDYSKNNFNPHEIREMLAAENKEMDIKMINKILYDIKNGGFRNKRAKNSLELELSDDDEDDVLQQYRLKRRELMRKRRLEIGDDAKLVKNPKSSAFFESMVEDIIEYKNPFGAEEEYNLDITSTATDLDTQDNSINVGDNTGNNEQKPVDQKNKKVIISEDFVQKSLSFLKSNNYEDFETDKELSRIQHGNDEAIEDLYTLKQNSSIKSFTNSQTDSTTSKTVNTIIDLEKRPEDEDEVENGDTSLVGVFKHPSIIKSFASRTDINDKFKEGNKTVKILKSYKTVGSSKASITYMGKTRKLIAPKRKTEGSHRYHHDHHNKKMKMKTKTKSNKLFESGQDSFDN
With B1, in test [1], the binding entry was “no binding”.

B2: Ctf4 (protein, UniProt Q01454 1-927)
chain: MVSVIDKLVFDFGGKTLVSLAPDNNTLCVANKNGLTKILKTNNPEEEPETLDSSKLVSSIKCYSNSHFLMTTMQGDALRYNIDSSQEELLARFALPLRDCCVIHSGKMAVFGGDDLELILLELDDETHKKHAIKIDEQVSQISYNSQMNILAVSMINGKVQIFSLTSTIPNKVHELNDYIVANSYDDTHRDKILSNMMDDIDKDNDNDLSETADPDENNVADPEFCAANRICTRVAWHPKGLHFALPCADDTVKIFSIKGYSLQKTLSTNLSSTKAHFIDLQFDPLRGTYIAAVDLNNKLTVWNWETSEIHYTREFKRKITNIAWKIQADSKTLDLVLGTWSGSIAIVQNLAESVVSNIPDQSVAESSTKHGLFVDSESDLENLEGNDDINKSDKLFSDITQEANAEDVFTQTHDGPSGLSEKRKYNFEDEEDFIDDDDGAGYISGKKPHNEHSYSRVHKTHSFPISLANTGKFRYMPFSPAGTPFGFTDRRYLTMNEVGYVSTVKNSEQYSITVSFFDVGRFREYHFEDLFGYDLCFLNEKGTLFGQSKTGQIQYRPHDSIHSNWTKIIPLQAGERITSVAATPVRVIVGTSLGYFRSFNQFGVPFAVEKTSPIVALTAQNYRVFSVHYSQFHGLSYSLSELGTSSKRYYKRECPLPMSLPNINSDMKKDANLDYYNFNPMGIKSLFFSSYGDPCIFGSDNTLLLLSKWRSPEESKWLPILDSNMEIWKMSGGKETTDIHVWPLALAYDTLNCILVKGKHIWPEFPLPLPSEMEIRMPVFVKSKLLEENKAILNKKNEIGADTEAEEGEEDKEIQIPVSMAAEEEYLRSKVLSELLTDTLENDGEMYGNENEVLAALNGAYDKALLRLFASACSDQNVEKALSLAHELKQDRALTAAVKISERAELPSLVKKINNIREARYEQQLK
As for B2, the binding entry in test [2] and in test [1] was “no binding” throughout.
